SMILES strings stand for the structures. Among all 2,400 compounds or so, about 20 (0.8%) were called active.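 The calls were made as follows: active = AC50 no more than ten times the highest tested concentration, or full inhibition at every dose giving a flat fit (cut at about 30 µM in these data); inconclusive = flat fit with activity between 30% and 70%, or poor-quality invalid fit; inactive = AC50 more than ten times the top tested dose.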 This is one part of the list. Where only a bound is given, the exact number is not on record here.

The test can be described thus: inhibitors of ADP-Glo detection reagents, dose response, artefact control for GSK-3a inhibitor project, biochemical, luminescence, cell-free, homogeneous (AID 463205).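 Also: kinase-free counter-screen against the ADP-Glo detection reagents only; potency is for inhibitors that reduce the luminescence signal.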 As to conditions: 5 uM ADP. In general terms: ADP-Glo first removes unused ATP, then detects ADP through luciferase.
What is called AC50 is the midpoint of the concentration-response curve, whichever way the signal moves. As for `CCN1/C(=C\C(C)=O)Sc2ccc(OC)cc21`, the AC50 is inactive: > 30 µM.
With `COc1ccccc1C(=O)NNC(=O)c1cccc(F)c1`, the AC50 was inactive: > 30 µM.
With `COc1ccc(C(CNc2ccc(S(=O)(=O)N3CCCC3)cc2[N+](=O)[O-])N2CCCC2)cc1` (centres undefined), the AC50 is inactive: > 30 µM.
In the case of `COc1cc2c(C#N)c(N3CCCC3)nc(N)c2c(N)n1` it was inactive: > 30 µM; in that of `CCCCCCCCCCCCCCCC[N+](C)(C)CC`, inactive: > 30 µM.
`O=C(c1ccc(F)cc1)c1cnc(Nc2ccccc2)s1`: the AC50 was inactive: > 30 µM.
Regarding `CCOc1ccc2ccccc2c1/C=N/n1cncn1`, the AC50 is inactive: > 30 µM.
For `COc1ccc(C(=O)c2sc(NC(C)C)nc2N)cc1OC`, the AC50 is inactive: > 30 µM.
Turning to `COc1cccc(/C=C2\Oc3cc(OCC(=O)N4CCC[C@H]4C(=O)O)ccc3C2=O)c1`, the AC50 is inactive: > 30 µM.
In the case of `Cc1noc(C)c1COc1ccc(C(=O)OCC(=O)Nc2c(C)n(C)n(-c3ccccc3)c2=O)cc1` it was inactive: > 30 µM; in that of `CCOc1cccc(-c2c(C(=O)N/N=C/c3ccoc3)nnn2-c2nonc2N)c1`, inactive: > 30 µM; in that of `CCOC(=O)N1CCC(N2CCN(S(=O)(=O)c3ccc(C)cc3)CC2)CC1`, inactive: > 30 µM.
In the case of `CCCc1cc(NCc2ccccn2)n2c(nc3ccccc32)c1C#N` it was inactive: > 30 µM.
For the molecule `NC1=NC(=O)/C(=C\c2ccc(-c3ccc(Cl)cc3)o2)S1`, the AC50 is inactive: > 30 µM.
On to `CCOC(=O)c1nnn(-c2nonc2N)c1-c1ccc(Br)cc1`, for which the AC50 is inactive: > 30 µM.
In the case of `Cc1nc(NC(=O)c2ccc(Br)o2)sc1C` it was inactive: > 30 µM.
Consider `COc1ccccc1NC(=O)CSc1nnc(-c2ccccc2)o1`, for which the AC50 was inactive: > 30 µM.
Take `CC1Cc2ccccc2N1c1ncnc2nc[nH]c12` (centres undefined): the AC50 is inactive: > 30 µM.
For `CCCc1nnc(NC(=O)CCN2C(=O)c3ccccc3C2=O)s1`, the AC50 was inactive: > 30 µM.
In the case of `Clc1ccc(N/N=C/c2ccncc2)cc1Cl` it was inactive: > 30 µM; in that of `O=Cc1cc(N=Nc2ccc(S(=O)(=O)O)cc2)ccc1O`, inactive: > 30 µM; in that of `O=Nc1c(-c2c(O)[nH]c3cc(Br)ccc23)[nH]c2ccccc12`, inactive: > 30 µM.
The result for `CC(=O)c1cc(-c2ccc(F)cc2)n(CCC(=O)Nc2cc(C)[nH]n2)c1C` reads inactive: > 30 µM; that for `O=C(Nc1ccccc1N1CCOCC1)c1cnccn1`, inactive: > 30 µM; that for `CCn1c(=O)[nH]c(=O)c2c(N)c(C(=O)c3ccccc3OC)sc21`, inactive: > 30 µM.
`Cc1cc2nc(-c3cccnc3SCC(=O)NC(C)C)[nH]c2cc1C`: the AC50 was inactive: > 30 µM.
The result for `Cc1cc(C(=O)CN(Cc2ccc(F)cc2)S(=O)(=O)c2ccc3c(c2)OCCO3)c(C)n1C` reads inactive: > 30 µM; that for `CCOC(=O)c1nc(NCc2cccnc2)c2ccccc2n1`, inactive: > 30 µM.
Regarding `COc1cccc(/C=N/n2cncn2)c1OCC#N`, the AC50 is inactive: > 30 µM.
The result for `Cc1ccc(Cn2cc(/C=N/Nc3ccc([N+](=O)[O-])cn3)c3ccccc32)cc1` reads inactive: > 30 µM; that for `Cc1ccnc(NC(=O)C(C)N2C(=O)c3ccccc3S2(=O)=O)c1` (centres undefined), inactive: > 30 µM.
In the case of `COc1cc(/C(C)=N/NC(=O)c2nnn(-c3nonc3N)c2-c2cccs2)ccc1O` it was inactive: > 30 µM; in that of `C[C@H](CO)N1C[C@H](C)[C@@H](CN(C)S(=O)(=O)c2cccs2)Oc2c(NS(=O)(=O)c3ccc(F)cc3)cccc2C1=O`, inactive: > 30 µM.
Consider `C[C@H](CO)N1C[C@H](C)[C@@H](CN(C)S(=O)(=O)c2ccccc2)Oc2c(NS(=O)(=O)c3ccc(F)cc3)cccc2C1=O`, for which the AC50 is inactive: > 30 µM.
The result for `COc1ccc(NC(=O)CSc2nnc(-c3cccc(O)c3)o2)cc1` reads inactive: > 30 µM; that for `CC1=NN(c2nc(-c3ccc(Cl)cc3)cs2)C(=O)C1`, inactive: > 30 µM.
The result for `CCc1ccc(C2CC(c3ccccc3Cl)Nc3nc(N)nn32)cc1` (centres undefined) reads inactive: > 30 µM; that for `CCOc1cccc(-c2c(C(=O)N/N=C(\C)c3cccnc3)nnn2-c2nonc2N)c1`, inactive: > 30 µM; that for `NS(=O)(=O)c1ccc(Nc2nc(-c3cccnc3)cs2)cc1`, inactive: > 30 µM.
The result for `Cc1cc(=O)[nH]c(SCC(=O)O)c1C#N` reads inactive: > 30 µM.
Consider `C=CCNC(=S)N1CCN(c2cccc(C(F)(F)F)c2)CC1`, for which the AC50 is inactive: > 30 µM.
As for `COc1ccccc1C(=O)NNC(=O)c1cccc(Br)c1`, the AC50 was inactive: > 30 µM.
The result for `COc1ccc(COC(=O)C2=C(C)NC(=O)NC2c2ccc(F)cc2)cc1` (centres undefined) reads inactive: > 30 µM; that for `CCOc1ccc(Cn2nnc(C(=O)Nc3cc(OC)cc(OC)c3)c2N)cc1`, inactive: > 30 µM; that for `NC(=O)Cn1cc(/C=N\NS(=O)(=O)c2cccc([N+](=O)[O-])c2)c2ccccc21`, inactive: > 30 µM.
The result for `COc1cc(NC(=O)c2cc([N+](=O)[O-])ccc2NC(=O)CNC2CCCCC2C)cc(OC)c1` (centres undefined) reads inactive: > 30 µM; that for `N#Cc1c2ccc(O)cc2n2ccccc12`, inactive: > 30 µM; that for `C/C(=N\NC(=O)CSc1nc(C)[nH]c1[N+](=O)[O-])c1ccc(F)cc1`, inactive: > 30 µM.
On to `Nc1cc(C(F)(F)F)ccc1C(=O)O`, for which the AC50 was inactive: > 30 µM.
The result for `COc1ccc(-c2cc(C(F)(F)F)nc(SCC(=O)NCc3ccco3)n2)cc1OC` reads inactive: > 30 µM; that for `O=c1c2ccccc2oc2ccc(NCCCn3ccnc3)cc12`, inactive: > 30 µM.
The result for `O=C(O)c1ccc(N=Nc2c(O)[nH]c3ccc(Br)cc23)cc1` reads inactive: > 30 µM.
Turning to `Cc1ccc(-c2cn3cccnc3n2)cc1NC(=O)c1c(-c2ccccc2Cl)noc1C`, the AC50 was inactive: > 30 µM.
The result for `Cc1nc(-c2ccncc2)nc(NCCNc2ccc(C(F)(F)F)cn2)c1Cl` reads inactive: > 30 µM; that for `FC(F)(F)c1cnc(N/N=C/c2ccncc2)c(Cl)c1`, inactive: > 30 µM; that for `Fc1ccccc1/C=N/Nc1ncnc2ccccc12`, inactive: > 30 µM.
The result for `CCOC(=O)CSc1nc(C)[nH]c1[N+](=O)[O-]` reads inactive: > 30 µM.
With `Cc1nc(NCC2CCCO2)nc2c1C(=O)CC(C)C2` (centres undefined), the AC50 was inactive: > 30 µM.
In the case of `CCOC(=O)c1cnc2c(C)c(Cl)ccc2c1N1CCN(CC)CC1` it was inactive: > 30 µM; in that of `CCCc1cc(C(N)=O)c(NC(C)=O)s1`, inactive: > 30 µM; in that of `Cc1noc(C)c1CSc1nnc(-c2ccccc2)o1`, inactive: > 30 µM.
The result for `CCCNC(=O)NC(C)C12CC3CC(CC(C3)C1)C2` (centres undefined) reads inactive: > 30 µM; that for `COc1cccc(/C=c2\s/c(=C\C(=O)C(C)(C)C)[nH]c2=O)c1`, inactive: > 30 µM.
As for `CCc1c(C)c(C#N)c2nc3ccccc3n2c1NCc1ccccn1`, the AC50 was inactive: > 30 µM.
In the case of `CCOC(=O)C1CCN(c2c(C(=O)c3ccccc3)cnc3ccc(Cl)cc23)CC1` it was inactive: > 30 µM; in that of `COc1ccc(Nc2nc(Cl)c(C=O)s2)cc1`, inactive: > 30 µM.
Turning to `COc1cccc(C(=O)NCC(=O)OCC(=O)c2ccccc2)c1`, the AC50 was inactive: > 30 µM.
Consider `Cc1cc(=O)[nH]c2c(C)c(N)ccc12`, for which the AC50 was inactive: > 30 µM.
The result for `O=C(O)Cn1c(=O)c2c3c(sc2n(Cc2ccccc2)c1=O)CCCC3` reads inactive: > 30 µM; that for `COC(=O)c1cnn(C(=O)c2cc(OC)ccc2Br)c1N`, inactive: > 30 µM; that for `CCC(C)c1ccc(NC(=S)NCc2cccs2)cc1` (centres undefined), inactive: > 30 µM.
Consider `COc1cc(/C=N/O)ccc1OCc1ccc([N+](=O)[O-])cc1`, for which the AC50 was inactive: > 30 µM.
Consider `COc1cc(/C=N\NC(=O)c2sc(N)nc2C)cc(OC)c1OC`, for which the AC50 is inactive: > 30 µM.
The result for `O=c1c(O)c(-c2cc(O)c(O)c(O)c2)oc2cc(O)cc(O)c12` reads inactive: > 30 µM; that for `COc1ccc(Nc2sc(C(=O)c3ccc(Cl)cc3)c(N)c2C(=O)Nc2ccccc2OC)cc1`, inactive: > 30 µM; that for `COc1ccc(-c2cc(=O)c3c(O)cc(O)cc3o2)cc1`, inactive: > 30 µM.
In the case of `O=c1c(O)cccc2cc(O)c(O)c(O)c12` it was inactive: > 30 µM.
With `COc1ccc(C(=O)c2sc3nc(-c4ccc(OC)cc4)ccc3c2N)cc1`, the AC50 is inactive: > 30 µM.
With `Cc1oc2c(Cl)c(Cl)c(O)c(CN(C)C)c2c1C(=O)c1ccc(Cl)cc1`, the AC50 was inactive: > 30 µM.
As for `Cc1cc(C)c(S(=O)(=O)Nc2ccnc(-c3cccnc3)n2)c(C)c1`, the AC50 is inactive: > 30 µM.
The result for `CCc1ccc(N2CC(C(=O)Nc3nccs3)CC2=O)cc1` (centres undefined) reads inactive: > 30 µM.
In the case of `CS(=O)(=O)N1CCN(c2ccccc2NC(=O)c2ccco2)CC1` it was inactive: > 30 µM; in that of `NC(=O)c1sc2nc3c(c(-c4ccccc4)c2c1N)CCC3`, inactive: > 30 µM.
Take `CC1CCc2c(sc3ncnc(NCCCOC(C)C)c23)C1` (centres undefined): the AC50 was inactive: > 30 µM.
Consider `O=C(Cn1c(NCCO)nc2ccccc21)c1ccc([N+](=O)[O-])cc1`, for which the AC50 is inactive: > 30 µM.
In the case of `CC(C)c1ccc(C2CC(=O)N3CN(Cc4ccco4)CSC3=C2C#N)cc1` (centres undefined) it was inactive: > 30 µM; in that of `CCOC(=O)c1c(C)c[nH]c1C`, inactive: > 30 µM; in that of `CC1(C)Cc2nc3sc4c(SCC(=O)O)ncnc4c3cc2CO1`, inactive: > 30 µM.
In the case of `O=C1Nc2ccccc2C1(O)c1ccccc1O` (centres undefined) it was inactive: > 30 µM; in that of `COc1ccc(CNC(=O)c2cc(COc3c(F)cccc3F)on2)cc1OC`, inactive: > 30 µM.
For `CCCCOC(=O)C1=C(C)Nc2ncnn2C1c1cccc(OC)c1` (centres undefined), the AC50 is inactive: > 30 µM.
The result for `CCCc1cc(C(N)=O)c(NC(=O)C2CCCO2)s1` (centres undefined) reads inactive: > 30 µM; that for `Nc1nc(N)nc(-c2cc(O)ccc2O)n1`, inactive: > 30 µM; that for `Clc1cccc(/C=N/Nc2ncnc3ccccc23)c1`, inactive: > 30 µM.

Source of the values: PubChem BioAssay AID463205 (Broad Institute, 2010).
